PubChem BioAssay AID493246, Drosophila RNAi Screening Center, 2011
The screen tested about 21,000 reagents; this is an unselected part of those that have a named target and a result. In the full data, 429 (2%) are marked active. 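Values are raw and not normalised between plates; calls rest on per-plate z-scores that were not deposited.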 Not stated in the record: the amount of reagent, the time to read-out.

- Screen: 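Identify essential fly genes by loss of cell viability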 (primary screen)
- Cell system: Drosophila Kc and S2R+ cells
- Reagents: long dsRNA against Drosophila genes
- Read-out: 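Raw, unnormalised count of remaining cells in each well; per-plate z-scores of cell number underlie the calls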
- Scale: Kc cell number and S2R+ cell number: higher = more cells remaining
- Rule for the call: 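Active when the per-plate z-score of cell number is 3 or more in the direction of fewer cells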

predicted target	PubChem SID	Kc cell number, rep 1	Kc cell number, rep 2	S2R+ cell number, rep 1	S2R+ cell number, rep 2	Call
nrv1	SID104183174	1.39e6	1.40e6	7.89e5	7.59e5	inactive
CG43394	SID104180805	1.53e6	1.54e6	9.59e5	1.12e6	inactive
CG34409	SID104194369	1.41e6	1.45e6	1.28e6	1.32e6	inactive
asun	SID104196525	1.59e6	1.74e6	1.16e6	1.22e6	inactive
zye	SID104191576	1.40e6	1.38e6	1.30e6	1.38e6	inactive
CG7714	SID104196092	1.14e6	1.17e6	1.13e6	1.19e6	inactive
Rbbp5	SID104191570	1.75e6	1.82e6	1.27e6	1.39e6	inactive
CG42450	SID104199814	1.51e6	1.50e6	1.03e6	1.13e6	inactive
CG18135	SID104190087	1.88e6	1.76e6	1.35e6	1.44e6	inactive
Pex11c	SID104194469	1.41e6	1.59e6	1.03e6	1.18e6	inactive
meep	SID104187740	1.49e6	1.52e6	1.03e6	1.16e6	inactive
SREBP	SID104190974	6.08e5	7.13e5	9.24e5	1.05e6	active
CG1850	SID104186554	1.43e6	1.57e6	1.24e6	1.34e6	inactive
CG32187	SID104190313	1.34e6	1.41e6	1.20e6	1.31e6	inactive
CG44098	SID104192006	1.39e6	1.62e6	1.30e6	1.39e6	inactive
CG44098	SID104192119	1.36e6	1.49e6	1.34e6	1.47e6	inactive
Taz	SID104187496	1.60e6	1.62e6	1.16e6	1.26e6	inactive
CG1999	SID104197991	1.20e5		9.34e5		inactive
mRpS22	SID104194280	4.84e5		7.83e5		inactive
CG14926	SID104182201	1.71e6	1.84e6	1.47e6	1.58e6	inactive
CG13008	SID104199319	1.39e6	1.41e6	1.06e6	1.14e6	inactive
CG13008	SID104199320	1.47e6	1.47e6	1.02e6	1.15e6	inactive
MAGE	SID104192296	1.58e6	1.64e6	1.33e6	1.35e6	inactive

Active calls (from the list above):
predicted target	PubChem SID	Kc cell number, rep 1	Kc cell number, rep 2	S2R+ cell number, rep 1	S2R+ cell number, rep 2	Call
SREBP	SID104190974	6.08e5	7.13e5	9.24e5	1.05e6	active

Additional entries:
predicted target	PubChem SID	Kc cell number, rep 1	Kc cell number, rep 2	S2R+ cell number, rep 1	S2R+ cell number, rep 2	Call
crn	SID104197976	9.00e5	1.07e6	8.16e5	9.34e5	active
crn	SID104197977	1.09e6	1.25e6	8.57e5	9.39e5	inactive
crn	SID104198547	3.66e5		6.03e5		inactive
CG11159	SID104185842	1.51e6	1.43e6	9.61e5	1.15e6	inactive
CG4465	SID104195376	1.19e6	1.15e6	1.12e6	1.21e6	inactive
tipE	SID104188530	1.31e6	1.40e6	1.33e6	1.26e6	inactive
Nost	SID104197829	1.60e6	1.64e6	1.16e6	1.23e6	inactive
Nost	SID104198130	1.59e6	1.62e6	1.14e6	1.23e6	inactive
Cht11	SID104198062	1.41e6	1.47e6	9.89e5	1.15e6	inactive
Zmynd8	SID104195102	4.76e5		7.69e5		inactive
Dgp-1	SID104187192	1.53e6	1.54e6	1.11e6	1.22e6	inactive
Gcat	SID104189511	1.62e6	1.55e6	1.39e6	1.49e6	inactive
CG3744	SID104195303	1.57e6	1.54e6	9.45e5	1.01e6	inactive
CG33969	SID104191569	1.39e6	1.48e6	1.27e6	1.32e6	inactive
CG43894	SID104189915	1.49e6	1.50e6	1.08e6	1.22e6	inactive
CG15882	SID104199527	1.43e6	1.47e6	1.07e6	1.15e6	inactive
KLHL18	SID104195288	1.43e6	1.47e6	1.22e6	1.27e6	inactive
Sf3b2	SID104180411	8.45e5	1.02e6	3.43e5	5.41e5	inactive
Cpsf160	SID104185760	1.37e6	1.44e6	1.17e6	1.28e6	inactive
CG14341	SID104180163	1.81e6	1.85e6	1.13e6	1.30e6	inactive
lectin-29Ca	SID104182427	1.63e6	1.64e6	1.23e6	1.36e6	inactive
CG31883	SID104182353	1.45e6	1.45e6	1.08e6	1.10e6	inactive
Sans	SID104186149	1.15e6	1.39e6	1.26e6	1.10e6	inactive
CG13898	SID104188160	1.17e6	1.40e6	1.16e6	1.35e6	inactive
Npc1b	SID104200280	1.44e6	1.48e6	1.09e6	1.10e6	inactive
Tsp3A	SID104198448	1.43e6	1.49e6	1.03e6	1.20e6	inactive
JIL-1	SID104190992	1.57e6	1.61e6	1.27e6	1.18e6	inactive
CG7702	SID104196085	1.50e6	1.60e6	1.11e6	1.24e6	inactive
dany	SID104183933	1.51e6	1.63e6	1.29e6	3.95e5	inactive
Iyd	SID104190406	1.35e6	1.27e6	1.29e6	1.36e6	inactive
Iyd	SID104190407	1.39e6	1.31e6	1.30e6	1.41e6	inactive
CG10948	SID104189598	1.59e6	1.73e6	1.34e6	1.56e6	inactive
CG34367	SID104182030	1.64e6	1.68e6	1.16e6	1.31e6	inactive
CG34367	SID104182642	1.49e6	1.55e6	1.17e6	1.28e6	inactive
CG13810	SID104188136	1.48e6	1.34e6	1.04e6	1.37e6	inactive
Nf1	SID104196550	5.41e5		7.43e5		inactive
